Values from PubChem BioAssay AID743454 (Peter MacCallum Cancer Centre, 2014).
Aim: 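Genes whose loss kills vorinostat-resistant colon cancer cells under vorinostat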 (primary screen). Cells: human HCT116-VR colon cancer cells, selected for vorinostat resistance. Reagent: siRNA pool against human genes, 40 nM siRNA pool. Timing: vorinostat for 24 h, read-out about 72 h after transfection. Conditions: vorinostat at 2.5 µM final. Read-out: 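Two measures, CellTiter-Fluor viability and luminescent caspase 3/7 activity, each as fold change against same-plate mock wells, mean of duplicates, then screen-wide robust z-score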. Scale: viability robust z-score: higher = more viable cells than screen typical; caspase robust z-score: higher = more caspase 3/7 activity than screen typical. Active means: 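a knock-down is a hit when classed RV1 or RV2 for lowered viability, or CA1 or CA2 for caspase activation; those lethal without drug were dropped; hits were retested singly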.
Here is a random part of about 18,000 reagents. 450 of all reagents (2.5%) count as active. 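Single biological run; no consistent viability z cut-off exists, so the class columns, not z-scores, define the calls.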 A number with no mark means an inactive call.

{"Target gene":"ITPRID1 (ITPR interacting domain containing 1)","viability hit class":"no change","caspase hit class":"no change","viability robust z-score":-0.43,"caspase robust z-score":2.27}
{"Target gene":"EXT1 (exostosin glycosyltransferase 1)","viability hit class":"no change","caspase hit class":"no change","viability robust z-score":0.76,"caspase robust z-score":-0.17}
{"Target gene":"TM9SF2 (transmembrane 9 superfamily member 2)","viability hit class":"no change","caspase hit class":"no change","viability robust z-score":1.37,"caspase robust z-score":-0.26}
{"Target gene":"WIPI1 (WD repeat domain, phosphoinositide interacting 1)","viability hit class":"no change","caspase hit class":"no change","viability robust z-score":-1.9,"caspase robust z-score":2.84}
{"Target gene":"TMEM156 (transmembrane protein 156)","viability hit class":"no change","caspase hit class":"no change","viability robust z-score":-0.38,"caspase robust z-score":-0.34}
{"Target gene":"GPRIN3 (GPRIN family member 3)","viability hit class":"no change (active)","caspase hit class":"CA2 (caspase activation)","viability robust z-score":-1,"caspase robust z-score":6.25}
{"Target gene":"BPIFB6 (BPI fold containing family B member 6)","viability hit class":"no change","caspase hit class":"no change","viability robust z-score":0.54,"caspase robust z-score":-1.03}
{"Target gene":"PREPL (prolyl endopeptidase like)","viability hit class":"no change","caspase hit class":"no change","viability robust z-score":0.82,"caspase robust z-score":-0.22}

The list goes on, starting with the last 2 of the part before.
{"Target gene":"BPIFB6 (BPI fold containing family B member 6)","viability hit class":"no change","caspase hit class":"no change","viability robust z-score":0.54,"caspase robust z-score":-1.03}
{"Target gene":"PREPL (prolyl endopeptidase like)","viability hit class":"no change","caspase hit class":"no change","viability robust z-score":0.82,"caspase robust z-score":-0.22}
{"Target gene":"MYLIP (myosin regulatory light chain interacting protein)","viability hit class":"no change","caspase hit class":"no change","viability robust z-score":-0.18,"caspase robust z-score":-0.9}
{"Target gene":"FRS3 (fibroblast growth factor receptor substrate 3)","viability hit class":"no change","caspase hit class":"no change","viability robust z-score":0.32,"caspase robust z-score":1.21}
{"Target gene":"NIPAL1 (NIPA like domain containing 1)","viability hit class":"no change","caspase hit class":"no change","viability robust z-score":-0.67,"caspase robust z-score":-0.6}
{"Target gene":"CNNM2","viability hit class":"no change","caspase hit class":"no change","viability robust z-score":0.74,"caspase robust z-score":0.34}
